The values that follow come from doi:10.1101/2024.12.13.628388.

Results are given in words; binding and its absence hold for the method and conditions named. In cells and extracts the contact can be indirect. Binding calls can cover weak binding; strength is not graded here. For some assays here: Sequences can lack the tags named with a protein.

One test concerns the target T1, Nuclear dot protein (NDP) 52, endogenous (human (endogenous in A549)) (UniProt Q13137).
T1 sequence: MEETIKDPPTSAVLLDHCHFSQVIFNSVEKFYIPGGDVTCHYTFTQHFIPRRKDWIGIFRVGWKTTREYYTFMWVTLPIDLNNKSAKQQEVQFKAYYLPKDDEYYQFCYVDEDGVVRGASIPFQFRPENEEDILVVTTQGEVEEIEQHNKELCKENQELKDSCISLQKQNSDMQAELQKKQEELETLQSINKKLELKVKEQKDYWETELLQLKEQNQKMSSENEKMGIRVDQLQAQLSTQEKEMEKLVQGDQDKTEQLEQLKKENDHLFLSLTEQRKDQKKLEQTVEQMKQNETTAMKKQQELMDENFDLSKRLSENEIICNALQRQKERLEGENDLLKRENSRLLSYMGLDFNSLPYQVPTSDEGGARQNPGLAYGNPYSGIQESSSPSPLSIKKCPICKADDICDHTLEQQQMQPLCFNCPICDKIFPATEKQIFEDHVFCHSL
The experiment in a line: co-IP.
With “HA-2C (EMCV non-structural protein 2C) (Encephalomyocarditis virus (EMCV))”, the binding entry is listed as “binds”. For the substance “HA-VP2 (EMCV structural protein VP2) (Encephalomyocarditis virus (EMCV))”, the binding entry was “binds”.

Take “Myc-3C (EMCV 3C protease) (Encephalomyocarditis virus (EMCV)) (enzyme)”: the binding result is recorded as “binds”. “Myc-VP1 (EMCV structural protein VP1) (Encephalomyocarditis virus (EMCV))”: the binding result is reported as “binds”. For the substance “Myc-VP3 (EMCV structural protein VP3) (Encephalomyocarditis virus (EMCV))”, the binding result was “no binding”.

The next test concerns the target T2, Myc-NDP52 (UniProt Q13137).
T2 sequence: T1 sequence
As to the kind of experiment: co-IP.
“eGFP-2C(1-102) (Encephalomyocarditis virus (EMCV)) (domain or fragment)”: the binding entry is listed as “binds”. Regarding “eGFP-2C(103-243) (Encephalomyocarditis virus (EMCV)) (domain or fragment)”, the binding result was “no binding”. Regarding “eGFP-2C(244-326) (Encephalomyocarditis virus (EMCV)) (domain or fragment)”, the binding result is “no binding”.
